Assay results reported in patent US8337813B2 (Northwestern University, priority 2007, dated 2012).

Assays:
[1] = general procedure: Fmoc solid-phase peptide synthesis; Wang resin; HATU/DIPEA; settings: whole synthesis; for isolated yield: overall yield after 19 steps
[2] = general procedure: Fmoc solid-phase peptide synthesis; Wang resin preloaded with fmoc-alanine (NovaBiochem), 100-200 mesh, 0.68 mmol/g; HATU/DIPEA; settings: late stage modification step
[3] = scale 1.0001 g fmoc-ala-Wang resin (0.68 mmol/g)

In the case of “Diethylenetriaminepentaacetic Acid-Ala-Pro-Leu-Ala-Leu-Trp-Ala-PEG3-Ala”, the isolated mass [1] is reported as 107.87 mg and the isolated yield ([1]; scale of the general procedure 1.09347 g resin, 0.68 mmol/g resin loading) is reported as 10%.
“Diethylenetriaminepentaacetic Acid-Ala-Pro-Leu-Ala-Leu-Trp-Ala-PEG6-Ala” showed an isolated yield [1, 3] of 10% and an isolated mass [1, 3] of 106.54 mg.
Work on “Gadolinium(III)-diethylenetriaminepentaacetic Acid-Ala-Pro-Leu-Ala-Leu-Trp-Ala-PEG3-Ala (APLALWA; Gd-DTPA N-cap, PEG3-Ala C-terminus; printed: Ala-Pro-Leu-Ala-Leu-Trp-Ala-)” yielded a step yield [2] of 86%.
